Data source: PubChem BioAssay AID652243 (Drosophila RNAi Screening Center, 2013)
The screen tested about 24,000 reagents; shown is a random part of those that have a named target and a result. In the full data, 246 (1%) are marked active. 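Plates not normalised; calls are printed but the firefly/Renilla ratio behind them is not deposited; fold cut for lowering reported inconsistently.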 Raw values are not corrected between plates. The numbers tell different reagents against one gene apart. A plus sign joins genes that one reagent is predicted to hit. No sequences are given here. Not given: the amount of reagent.

Assay: 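Fly genes required for human androgen receptor driven transcription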 (primary screen)
Cells: Drosophila S2R+ cells
Knock-down reagent: long dsRNA against Drosophila genes
Duration: 72 h (48 h, then 24 h hormone)
Conditions: synthetic androgen R1881 at 10 nM for 24 h
Measured: 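Firefly light from an androgen-responsive reporter and Renilla control light per well, raw and unnormalised, for each of two replicates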
Scale: firefly reporter light: higher = more light from androgen-responsive reporter; Renilla control light: higher = more constitutive control signal (cell number, transfection)
Hit rule: 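Across duplicate plates, a knock-down whose log firefly/Renilla ratio shifted a set fold down or up from the GFP/LacZ control mean was a hit; the downward cut appears as both 1.5 and 3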
Calls: active = hit: reporter lowered or raised; inactive = no hit

| gene knocked down | reagent no. | firefly reporter light, replicate 1 | firefly reporter light, replicate 2 | Renilla control light, replicate 1 | Renilla control light, replicate 2 | outcome |
| --- | --- | --- | --- | --- | --- | --- |
| Ag5r (Antigen 5-related) | 1 | 1.10e5 | 1.09e5 | 8.80e5 | 8.52e5 | inactive |
| Ag5r (Antigen 5-related) | 2 | 4.10e5 | 3.45e5 | 1.16e6 | 9.43e5 | inactive |
| CG11663 | 1 | 7.62e5 | 9.48e5 | 7.26e5 | 8.16e5 | inactive |
| Sk2 (Sphingosine kinase 2) | 1 | 1.14e6 | 9.55e5 | 1.87e6 | 1.45e6 | inactive |
| Sk2 (Sphingosine kinase 2) | 2 | – | – | – | – | inactive |
| Sk2 (Sphingosine kinase 2) | 3 | – | – | – | – | inactive |
| CG34428 | 1 | 1.64e5 | 1.33e5 | 1.85e6 | 1.76e6 | inactive |
| Usp16-45 (Ubiquitin specific protease 16/45) | 1 | 87188 | 62706 | 7.28e5 | 6.08e5 | inactive |
| Usp16-45 (Ubiquitin specific protease 16/45) | 2 | 2.97e5 | 2.48e5 | 7.36e5 | 4.14e5 | inactive |
| CG12259 | 1 | 4.90e5 | 6.95e5 | 3.73e5 | 4.53e5 | inactive |
| CG12259 | 2 | 4.16e5 | 3.88e5 | 1.81e6 | 1.99e6 | inactive |
| Nnp-1 | 1 | 2.00e5 | 2.03e5 | 2.15e6 | 2.20e6 | inactive |
| Nnp-1 | 2 | 2.93e5 | 4.66e5 | 1.08e6 | 1.18e6 | inactive |
| Mgat4a | 1 | 5.83e5 | 7.24e5 | 2.08e6 | 2.23e6 | inactive |
| Mgat4a | 2 | 73304 | 96716 | 8.24e5 | 1.26e6 | inactive |
| CR34285 (pseudo) | 1 | 9.25e5 | 5.93e5 | 2.43e6 | 1.49e6 | inactive |
| obst-J (obstructor-J) | 1 | 2.26e5 | 2.29e5 | 2.46e6 | 3.02e6 | inactive |
| obst-J (obstructor-J) | 2 | 2.97e5 | 6.12e5 | 9.50e5 | 2.11e6 | inactive |
| SP (Sex Peptide) | 1 | 2.88e5 | 1.58e5 | 2.50e6 | 2.34e6 | inactive |
| CG2147 | 1 | 1.43e5 | 80059 | 8.40e5 | 6.99e5 | inactive |
| Bili + CR41504 | 1 | 7.71e5 | 5.68e5 | 1.89e6 | 2.22e6 | inactive |
| CG15422 | 1 | 63278 | 57689 | 8.89e5 | 7.29e5 | inactive |
| CG15422 | 2 | 6.90e5 | 4.80e5 | 6.46e5 | 5.47e5 | inactive |
| CG31855 | 1 | 1.47e5 | 1.66e5 | 7.48e5 | 9.48e5 | inactive |
| CG31855 | 2 | 6.48e5 | 7.61e5 | 1.02e6 | 9.98e5 | inactive |

A few values from the list.
Result of CG12259 #2 under “firefly reporter light, replicate 2”: 3.88e5
Value of Sk2 (Sphingosine kinase 2) #3 under “outcome”: inactive
